Measurements: article PMC6339880
Results are given in words; binding and its absence hold for the method and conditions named. In cells and extracts the contact can be indirect. A yes stands for co-enrichment or nearness to the bait. Other partners may have been found.

Protein sequences, listed by entry. Tags and fused reporters are not part of them. Lines headed by an entry give the natural chain unless they say otherwise; changes in a name come on top.
UniProt P0AAI3: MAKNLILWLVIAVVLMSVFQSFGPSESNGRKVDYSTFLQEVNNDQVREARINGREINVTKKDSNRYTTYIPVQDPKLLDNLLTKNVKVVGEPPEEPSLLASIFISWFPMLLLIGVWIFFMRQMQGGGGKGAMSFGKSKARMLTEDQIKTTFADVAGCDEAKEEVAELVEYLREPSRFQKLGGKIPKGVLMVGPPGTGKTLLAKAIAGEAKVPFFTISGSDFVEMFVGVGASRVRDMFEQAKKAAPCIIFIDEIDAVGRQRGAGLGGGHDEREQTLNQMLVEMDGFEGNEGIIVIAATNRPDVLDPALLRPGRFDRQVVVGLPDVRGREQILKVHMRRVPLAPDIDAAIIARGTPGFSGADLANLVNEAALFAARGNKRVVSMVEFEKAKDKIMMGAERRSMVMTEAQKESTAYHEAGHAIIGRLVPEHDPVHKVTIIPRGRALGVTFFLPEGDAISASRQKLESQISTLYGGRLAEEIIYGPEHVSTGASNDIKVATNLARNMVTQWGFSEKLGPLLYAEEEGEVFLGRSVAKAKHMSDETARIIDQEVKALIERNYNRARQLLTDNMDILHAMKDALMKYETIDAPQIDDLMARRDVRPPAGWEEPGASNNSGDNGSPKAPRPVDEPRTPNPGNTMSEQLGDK

T1: Strep-LpxC (E. coli) (UniProt P0A725)
T1 sequence: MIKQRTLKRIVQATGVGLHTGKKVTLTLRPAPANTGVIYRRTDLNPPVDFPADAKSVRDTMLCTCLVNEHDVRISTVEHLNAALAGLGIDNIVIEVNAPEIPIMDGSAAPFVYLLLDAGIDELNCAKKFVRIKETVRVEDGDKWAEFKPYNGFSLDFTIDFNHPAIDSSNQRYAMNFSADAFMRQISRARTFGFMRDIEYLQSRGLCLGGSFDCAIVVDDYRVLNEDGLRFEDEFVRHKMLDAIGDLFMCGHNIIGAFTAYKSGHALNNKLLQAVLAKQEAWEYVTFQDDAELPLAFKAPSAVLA

B1: DadA (enzyme, UniProt P0A6J5 1-432)
chain: MRVVILGSGVVGVASAWYLNQAGHEVTVIDREPGAALETSAANAGQISPGYAAPWAAPGVPLKAIKWMFQRHAPLAVRLDGTQFQLKWMWQMLRNCDTSHYMENKGRMVRLAEYSRDCLKALRAETNIQYEGRQGGTLQLFRTEQQYENATRDIAVLEDAGVPYQLLESSRLAEVEPALAEVAHKLTGGLQLPNDETGDCQLFTQNLARMAEQAGVKFRFNTPVDQLLCDGEQIYGVKCGDEVIKADAYVMAFGSYSTAMLKGIVDIPVYPLKGYSLTIPIAQEDGAPVSTILDETYKIAITRFDNRIRVGGMAEIVGFNTELLQPRRETLEMVVRDLYPRGGHVEQATFWTGLRPMTPDGTPVVGRTRFKNLWLNTGHGTLGWTMACGSGQLLSDLLSGRTPAIPYEDLSVARYSRGFTPSRPGHLHGAHS
B2: PhoP (protein, UniProt P23836 1-223)
chain: MRVLVVEDNALLRHHLKVQIQDAGHQVDDAEDAKEADYYLNEHIPDIAIVDLGLPDEDGLSLIRRWRSNDVSLPILVLTARESWQDKVEVLSAGADDYVTKPFHIEEVMARMQALMRRNSGLASQVISLPPFQVDLSRRELSINDEVIKLTAFEYTIMETLIRNNGKVVSKDSLMLQLYPDAELRESHTIDVLMGRLRKKIQAQYPQEVITTVRGQGYLFELR
B3: KdsD (enzyme, UniProt P45395 1-328)
chain: MSHVELQPGFDFQQAGKEVLAIERECLAELDQYINQNFTLACEKMFWCKGKVVVMGMGKSGHIGRKMAATFASTGTPSFFVHPGEAAHGDLGMVTPQDVVIAISNSGESSEITALIPVLKRLHVPLICITGRPESSMARAADVHLCVKVAKEACPLGLAPTSSTTATLVMGDALAVALLKARGFTAEDFALSHPGGALGRKLLLRVNDIMHTGDEIPHVKKTASLRDALLEVTRKNLGMTVICDDNMMIEGIFTDGDLRRVFDMGVDVRQLSIADVMTPGGIRVRPGILAVEALNLMQSRHITSVMVADGDHLLGVLHMHDLLRAGVV
B4: PpiD (protein, UniProt P0ADY1 1-623)
chain: MMDSLRTAANSLVLKIIFGIIIVSFILTGVSGYLIGGGNNYAAKVNDQEISRGQFENAFNSERNRMQQQLGDQYSELAANEGYMKTLRQQVLNRLIDEALLDQYARELKLGISDEQVKQAIFATPAFQVDGKFDNSRYNGILNQMGMTADQYAQALRNQLTTQQLINGVAGTDFMLKGETDELAALVAQQRVVREATIDVNALAAKQPVTEQEIASYYEQNKNNFMTPEQFRVSYIKLDAATMQQPVSDADIQSYYDQHQDQFTQPQRTRYSIIQTKTEDEAKAVLDELNKGGDFAALAKEKSADIISARNGGDMGWLEDATIPDELKNAGLKEKGQLSGVIKSSVGFLIVRLDDIQPAKVKSLDEVRDDIAAKVKHEKALDAYYALQQKVSDAASNDTESLAGAEQAAGVKATQTGWFSKDNLPEELNFKPVADAIFNGGLVGENGAPGINSDIITVDGDRAFVLRISEHKPEAVKPLADVQEQVKALVQHNKAEQQAKVDAEKLLVDLKAGKGAEAMQAAGLKFGEPKTLSRSGRDPISQAAFALPLPAKDKPSYGMATDMQGNVVLLALDEVKQGSMPEDQKKAMVQGITQNNAQIVFEALMSNLRKEAKIKIGDALEQQ
B5: LpxA (enzyme, UniProt P0A722 1-262)
chain: MIDKSAFVHPTAIVEEGASIGANAHIGPFCIVGPHVEIGEGTVLKSHVVVNGHTKIGRDNEIYQFASIGEVNQDLKYAGEPTRVEIGDRNRIRESVTIHRGTVQGGGLTKVGSDNLLMINAHIAHDCTVGNRCILANNATLAGHVSVDDFAIIGGMTAVHQFCIIGAHVMVGGCSGVAQDVPPYVIAQGNHATPFGVNIEGLKRRGFSREAITAIRNAYKLIYRSGKTLDEVKPEIAELAETYPEVKAFTDFFARSTRGLIR
B6: SecD (protein, UniProt P0AG90 1-615)
chain: MLNRYPLWKYVMLIVVIVIGLLYALPNLFGEDPAVQITGARGVAASEQTLIQVQKTLQEEKITAKSVALEEGAILARFDSTDTQLRAREALMGVMGDKYVVALNLAPATPRWLAAIHAEPMKLGLDLRGGVHFLMEVDMDTALGKLQEQNIDSLRSDLREKGIPYTTVRKENNYGLSITFRDAKARDEAIAYLSKRHPDLVISSQGSNQLRAVMSDARLSEAREYAVQQNINILRNRVNQLGVAEPVVQRQGADRIVVELPGIQDTARAKEILGATATLEFRLVNTNVDQAAAASGRVPGDSEVKQTREGQPVVLYKRVILTGDHITDSTSSQDEYNQPQVNISLDSAGGNIMSNFTKDNIGKPMATLFVEYKDSGKKDANGRAVLVKQEEVINIANIQSRLGNSFRITGINNPNEARQLSLLLRAGALIAPIQIVEERTIGPTLGMQNIEQGLEACLAGLLVSILFMIIFYKKFGLIATSALIANLILIVGIMSLLPGATLSMPGIAGIVLTLAVAVDANVLINERIKEELSNGRTVQQAIDEGYRGAFSSIFDANITTLIKVIILYAVGTGAIKGFAITTGIGVATSMFTAIVGTRAIVNLLYGGKRVKKLSI
B7: PrlC (enzyme, UniProt P27298 1-680)
chain: MTNPLLTPFELPPFSKILPEHVVPAVTKALNDCRENVERVVAQGAPYTWENLCQPLAEVDDVLGRIFSPVSHLNSVKNSPELREAYEQTLPLLSEYSTWVGQHEGLYKAYRDLRDGDHYATLNTAQKKAVDNALRDFELSGIGLPKEKQQRYGEIATRLSELGNQYSNNVLDATMGWTKLVTDEAELAGMPESALAAAKAQAEAKELEGYLLTLDIPSYLPVMTYCDNQALREEMYRAYSTRASDQGPNAGKWDNSKVMEEILALRHELAQLLGFENYAFKSLATKMAENPQQVLDFLTDLAKRARPQGEKELAQLRAFAKAEFGVDELQPWDIAYYSEKQKQHLYSISDEQLRPYFPENKAVNGLFEVVKRIYGITAKERKDVDVWHPDVRFFELYDENNELRGSFYLDLYARENKRGGAWMDDCVGQMRKADGSLQKPVAYLTCNFNRPVNGKPALFTHDEVITLFHEFGHGLHHMLTRIETAGVSGISGVPWDAVELPSQFMENWCWEPEALAFISGHYETGEPLPKELLDKMLAAKNYQAALFILRQLEFGLFDFRLHAEFRPDQGAKILETLAEIKKLVAVVPSPSWGRFPHAFSHIFAGGYAAGYYSYLWADVLAADAFSRFEEEGIFNRETGQSFLDNILSRGGSEEPMDLFKRFRGREPQLDAMLEHYGIKG
B8: SucB (enzyme, UniProt P0AFG6 1-405)
chain: MSSVDILVPDLPESVADATVATWHKKPGDAVVRDEVLVEIETDKVVLEVPASADGILDAVLEDEGTTVTSRQILGRLREGNSAGKETSAKSEEKASTPAQRQQASLEEQNNDALSPAIRRLLAEHNLDASAIKGTGVGGRLTREDVEKHLAKAPAKESAPAAAAPAAQPALAARSEKRVPMTRLRKRVAERLLEAKNSTAMLTTFNEVNMKPIMDLRKQYGEAFEKRHGIRLGFMSFYVKAVVEALKRYPEVNASIDGDDVVYHNYFDVSMAVSTPRGLVTPVLRDVDTLGMADIEKKIKELAVKGRDGKLTVEDLTGGNFTITNGGVFGSLMSTPIINPPQSAILGMHAIKDRPMAVNGQVEILPMMYLALSYDHRLIDGRESVGFLVTIKELLEDPTRLLLDV
B9: FadB (enzyme, UniProt P21177 1-729)
chain: MLYKGDTLYLDWLEDGIAELVFDAPGSVNKLDTATVASLGEAIGVLEQQSDLKGLLLRSNKAAFIVGADITEFLSLFLVPEEQLSQWLHFANSVFNRLEDLPVPTIAAVNGYALGGGCECVLATDYRLATPDLRIGLPETKLGIMPGFGGSVRMPRMLGADSALEIIAAGKDVGADQALKIGLVDGVVKAEKLVEGAKAVLRQAINGDLDWKAKRQPKLEPLKLSKIEATMSFTIAKGMVAQTAGKHYPAPITAVKTIEAAARFGREEALNLENKSFVPLAHTNEARALVGIFLNDQYVKGKAKKLTKDVETPKQAAVLGAGIMGGGIAYQSAWKGVPVVMKDINDKSLTLGMTEAAKLLNKQLERGKIDGLKLAGVISTIHPTLDYAGFDRVDIVVEAVVENPKVKKAVLAETEQKVRQDTVLASNTSTIPISELANALERPENFCGMHFFNPVHRMPLVEIIRGEKSSDETIAKVVAWASKMGKTPIVVNDCPGFFVNRVLFPYFAGFSQLLRDGADFRKIDKVMEKQFGWPMGPAYLLDVVGIDTAHHAQAVMAAGFPQRMQKDYRDAIDALFDANRFGQKNGLGFWRYKEDSKGKPKKEEDAAVEDLLAEVSQPKRDFSEEEIIARMMIPMVNEVVRCLEEGIIATPAEADMALVYGLGFPPFHGGAFRWLDTLGSAKYLDMAQQYQHLGPLYEVPEGLRNKARHNEPYYPPVEPARPVGDLKTA
B10: LpxB (enzyme, UniProt P10441 1-382)
chain: MTEQRPLTIALVAGETSGDILGAGLIRALKEHVPNARFVGVAGPRMQAEGCEAWYEMEELAVMGIVEVLGRLRRLLHIRADLTKRFGELKPDVFVGIDAPDFNITLEGNLKKQGIKTIHYVSPSVWAWRQKRVFKIGRATDLVLAFLPFEKAFYDKYNVPCRFIGHTMADAMPLDPDKNAARDVLGIPHDAHCLALLPGSRGAEVEMLSADFLKTAQLLRQTYPDLEIVVPLVNAKRREQFERIKAEVAPDLSVHLLDGMGREAMVASDAALLASGTAALECMLAKCPMVVGYRMKPFTFWLAKRLVKTDYVSLPNLLAGRELVKELLQEECEPQKLAAALLPLLANGKTSHAMHDTFRELHQQIRCNADEQAAQAVLELAQ
B11: WaaA (enzyme, UniProt P0AC75 1-425)
chain: MLELLYTALLYLIQPLIWIRLWVRGRKAPAYRKRWGERYGFYRHPLKPGGIMLHSVSVGETLAAIPLVRALRHRYPDLPITVTTMTPTGSERVQSAFGKDVQHVYLPYDLPDALNRFLNKVDPKLVLIMETELWPNLIAALHKRKIPLVIANARLSARSAAGYAKLGKFVRRLLRRITLIAAQNEEDGARFVALGAKNNQVTVTGSLKFDISVTPQLAAKAVTLRRQWAPHRPVWIATSTHEGEESVVIAAHQALLQQFPNLLLILVPRHPERFPDAINLVRQAGLSYITRSSGEVPSTSTQVVVGDTMGELMLLYGIADLAFVGGSLVERGGHNPLEAAAHAIPVLMGPHTFNFKDICARLEQASGLITVTDATTLAKEVSSLLTDADYRSFYGRHAVEVLYQNQGALQRLLQLLEPYLPPKTH

The binders below were run against His6-MBP-FtsH (E. coli) (UniProt P0AAI3) (assay: affinity purification with mass spectrometry; His6-MBP-FtsH overproduced in E. coli BL21 Δarg/Δlys grown at 30°C (slow), 37°C (medium) or 40°C (fast growth); Ni-NTA affinity purification from the lysate; co-purified proteins identified by LC-MS/MS with a super-SILAC standard; enriched >2-fold over the His6-MBP empty-vector control, p<0.05, or 'FtsH only').

Row | binding | Binder
1 | binds | B1
2 | binds | B2
3 | binds | B3
4 | binds | B4
5 | binds | B5
6 | binds | B6

The binders below were run against T1, Strep-LpxC (E. coli) (assay: affinity purification with mass spectrometry; Strep-LpxC overproduced in E. coli BL21 Δarg/Δlys grown at 30°C (slow), 37°C (medium) or 40°C (fast growth); Strep-tactin affinity purification from the lysate; co-purified proteins identified by LC-MS/MS with a super-SILAC standard; enriched >2-fold over the Strep-tag empty-vector control, p<0.05, or 'LpxC only').

Row | binding | Binder
7 | binds | B7
8 | binds | B8
9 | binds | B9
10 | binds | B10
11 | binds | B11
